Data on two molecules can be found in publication PMC12195615, “In Vitro and In Silico Assessments of Curcuminoids and Turmerones from Curcuma longa as Novel Inhibitors of Leishmania infantum Arginase” (Pharmaceuticals, 2025).

The subject of the series is intracellular L. infantum amastigotes. Nature of the series: Inhibition of intracellular amastigotes in infected RAW 264.7 macrophages. The settings on record: CC50 RAW 264.7 / IC50 amastigotes. It counts as cell-based, Leishmania infantum. As for the experimental part: After adhesion, the cells were incubated for 24 h in the presence of L. infantum promastigotes at a ratio of 10 parasites per macrophage at 35 °C in a 5% CO2 atmosphere. After the interaction period, the wells were washed with PBS to remove non-internalized promastigotes, and the infected macrophages were incubated for 24 h under the same conditions. […] Untreated infected macrophages served as a positive control for amastigote viability. After 48 h of treatment, the supernatant was collected, and the coverslips were stained with Panoptic. […] The IC50 was then calculated using dose–response curve regression analysis.

The structures appear in SMILES notation.

With `O.O.O.O=C([O-])C(O)C(O)C(=O)[O-].O=C([O-])C(O)C(O)C(=O)[O-].[K+].[K+].[Sb].[Sb]` (centres unmarked) [PAT, potassium antimony(III) tartrate hydrate, reference compound], the “IS (intracellular L. infantum amastigotes)” value came out at 1.63.

For `COc1cc(/C=C/C(=O)CC(=O)/C=C/c2ccc(O)c(OC)c2)ccc1O` [compound 1, curcumin], the “IS (intracellular L. infantum amastigotes)” value was 5.13.
